According to PubChem BioAssay AID2685 (National Center for Advancing Translational Sciences (NCATS), 2010):
Some of the results follow. These are further read-outs of the screen, such as a control signal, another cell line or another target. No call is given for them. Most of these compounds were active or inconclusive in the main read-out, so they are no random draw. Potencies come from curve fits of mixed quality, noted in brackets.

Experiment: qHTS Assay for Lipid Storage Modulators in Drosophila S3 Cells;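 for cell number change: cells counted by Cell Tracker Red CMTPX staining in the red channel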
Details: BODIPY lipid droplet fluorescence, 18-24 h; for cell number change: measured here: cell count max response, cells fed with added oleic acid
Method in brief: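 Drosophila S3 cells loaded with oleic acid (400 uM, as added) and compounds at several concentrations; lipid droplets imaged by 488-nm laser-scanning cytometry, 500–530 nm intensity and object ratio to cell channel. Percent activity normalized to 20 uM Triacsin C.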

[1] = measured here: lipid fluorescence (Fed channel) AC50, cells fed with added oleic acid
[2] = measured here: cell number channel AC50, cells fed with added oleic acid

Structure (SMILES)	AC50 [1]	cell number change [%]	AC50 [2]
CCc1nc2ccc(C(=O)NCCc3ccco3)cc2nc1CC	8.2 µM [falling, partial curve]		
Cc1cc2cc3c(cc2nc1SCC(=O)OC(C)C)OCO3	18.4 µM [rising, partial curve, poor fit]	33.7	0.0116 µM [rising, full curve, poor fit]
O=C(Cn1cc(C(F)(F)F)ccc1=O)N1CCN(S(=O)(=O)c2ccc(Cl)cc2)CC1		-5.71	
COC(=O)CCCC1=CC2=CC(=O)C(C)(OC(=O)c3cccs3)C(=O)C2=CN1CCc1ccccn1 (stereo not drawn)	0.517 µM [rising, partial curve]	28	
CCCCN(CCCC)CC1OCc2ccccc2CO1	32.6 µM [rising, partial curve]	21.6	
CN1c2ccccc2C(C)(C)C12C=Nc1c(cc(N3CCOCC3)c3ccccc13)O2 (stereo not drawn)	29.1 µM [falling, single point]	-20.3	
CS(=O)(=O)c1ccccc1C(=O)NC1CCCc2ccccc21 (stereo not drawn)		52.7	
N=c1c2c(-c3ccccc3)c(-c3ccccc3)oc2ncn1CCCN1CCOCC1	23.1 µM [falling, partial curve, poor fit]	-34.8	9.2 µM [falling, partial curve, poor fit]
CCC(=O)OCC(=O)c1cc(C)n(-c2ccc(Br)cc2)c1C	6.51 µM [falling, partial curve, poor fit]	-28.6	
O=C(Cn1nnc2ccccc21)c1cccc([N+](=O)[O-])c1	2.31 µM [rising, single point]	2.37	
CC(C)(C)n1nc2c(c1NC(=O)c1ccc(S(=O)(=O)N3CCCC3)cc1)CSC2		-0.662	
COc1ccc(C(=S)N2CCOCC2)cc1OC(=O)c1ccc([N+](=O)[O-])cc1		32.5	9.2 µM [rising, partial curve]
CCOC(=O)C1CCN(C(=O)C2CC(=O)N(c3ccc4c(c3)OCCO4)C2)CC1 (stereo not drawn)	0.0058 µM [rising, full curve, poor fit]	31.4	16.4 µM [rising, partial curve, poor fit]
O=C(Cn1cc2c(n1)CCCC2)NCCCN1CCN(Cc2ccccc2)CC1	3.66 µM [rising, full curve, poor fit]	-4.69	0.00461 µM [falling, full curve, poor fit]
O=C(Nc1ccc(C(=O)N2CCCC2)cc1)c1ccc2c(c1)OCO2	2.91 µM [rising, single point]	59.9	0.00461 µM [rising, full curve, poor fit]
O=S(=O)(NCCNS(=O)(=O)c1cccs1)c1cccs1	29.1 µM [falling, single point]	-16.6	
COc1ccc(-c2csc(NC(=O)Cc3ccccc3F)n2)cc1OC	0.82 µM [rising, full curve]	18.4	

Structure (SMILES)	AC50 [1]	cell number change [%]	AC50 [2]
COc1ccc([C@H]2CC(=O)C=C(/C=C/c3ccc(C(F)(F)F)cc3)C2)cc1	10.3 µM [falling, partial curve, poor fit]	-31.4	29.1 µM [falling, single point]
O=C(O)C1=CC[C@@H](c2ccc(Cl)cc2)N(S(=O)(=O)c2ccc(Cl)cc2)[C@H]1c1cccc(Cl)c1	6.51 µM [rising, single point]		
Cc1cccc(NC(=O)CN(C)CC(=O)NC(c2ccccc2)c2ccccc2)c1C	16.4 µM [falling, single point]	-37.8	1.3 µM [falling, partial curve]
Cc1cnc(C(=O)NCC(c2ccccc2)c2ccccc2)cn1	5.17 µM [rising, single point]	-35.4	25.9 µM [falling, single point]
Cc1cc(C)c(N(CC(=O)NC(C)(C)C)C(=O)CNC(=O)c2cccs2)c(C)c1	3.26 µM [falling, full curve, poor fit]	-43	20.6 µM [falling, partial curve]
Fc1ccccc1Cc1ccc(Cl)nn1	18.4 µM [rising, partial curve]	45.5	8.2 µM [rising, partial curve, poor fit]
Cc1cccc(NS(=O)(=O)c2ccc(C)c(C(=O)NCC(c3cccs3)N(C)C)c2)c1 (stereo not drawn)		198	16.4 µM [rising, partial curve]
Oc1c(Br)cc(Br)cc1CNc1cnc2ccccc2c1		-34.9	11.6 µM [falling, partial curve, poor fit]
COc1ccc2c(c1)c(CC(=O)OC(C)C(=O)N(C)C)c(C)n2C(=O)c1ccc(Cl)cc1 (stereo not drawn)	3.55 µM [falling, single point]		
O=C(/C=C\c1ccco1)Nc1cc([N+](=O)[O-])ccc1F		4.6	0.0731 µM [rising, full curve, poor fit]
O=C(NCc1ccccn1)c1ccc(Cn2c(=S)[nH]c3ccc(Br)cc3c2=O)cc1	20.6 µM [falling, single point]	-53.5	20.6 µM [falling, single point]
Nc1ccn(CC(=O)NCc2ccc3[nH]ccc3c2)c(=O)n1	1.16 µM [rising, partial curve, poor fit]	17	
Cc1cccc(OCCCSc2nc3ccccc3[nH]2)c1	1.46 µM [falling, full curve, poor fit]	-19	
CCOC(=O)C1CCN(C(=O)Nc2ccc(OC)c(OC)c2)CC1	0.58 µM [rising, single point]	82	18.4 µM [rising, single point]
CC1(C)CC(=O)C=C(c2ccc(-c3ccccc3)cc2)C1	0.731 µM [falling, partial curve]	-37.3	0.231 µM [falling, full curve, poor fit]
COc1ccccc1CNc1n[nH]c(NCc2ccccc2OC)n1	18.4 µM [rising, partial curve, poor fit]	3.44	

Copied from the results shown for reference:
Structure (SMILES)	AC50 [1]	cell number change [%]	AC50 [2]
O=C(NCc1ccccn1)c1ccc(Cn2c(=S)[nH]c3ccc(Br)cc3c2=O)cc1	20.6 µM [falling, single point]	-53.5	20.6 µM [falling, single point]
Nc1ccn(CC(=O)NCc2ccc3[nH]ccc3c2)c(=O)n1	1.16 µM [rising, partial curve, poor fit]	17	
